Laboratory results taken from US20100178316A1, “EXTENDED RELEASE OF BIOACTIVE MOLECULES FROM SILICONE HYDROGELS” (priority 2007, published 2010).
At least one compound was matched to its structure with a doubt left.

Tests used:
[1] = Packaging test: drug lost from drug-loaded silicone hydrogel to PBS packaging solution; assay type: physicochemical
Procedure: (§1) Commercial contact lenses are typically packaged in about 1-1.5 ml of packaging solution such as PBS. To estimate the effects of packaging on drug release behavior of silicone hydrogel appliances, packaging tests were conducted. A 0.1 mm thick silicone hydrogel was cut into circular pieces of 1.75 cm diameter and a drug was loaded by soaking the silicone hydrogel in a drug-ethanol solution. A 0.1 mm thick piece of GEL1 was loaded with a drug by soaking in drug-ethanol solution of 6.4 mg/ml for timolol and 4.8 mg/ml for DXA. The GEL1 pieces were then blotted with wipes to remove excess drug-ethanol solution from the pieces. The pieces were dried in air overnight before conducting the packaging tests. The silicone hydrogels were then stored in 1 ml of PBS (packaging) solution in a sealed vials for 1.3 or 2 months, and subsequently the appliance was placed in 2 ml of fresh PBS solution. The release of the drug over time is plotted in FIG. 17 and FIG. 18 for timolol and DXA, respectively. For timolol, about 364 μg and 404 μg of drug were lost to the packaging solution for the appliance stored for 1.3 months and 2 months, respectively. The residual drug released into the fresh PBS solution at an average rate of 0.09 mg/(g of gel·day) for 20 days, and then at a lower rate for another 2 months as shown in FIG. 17. […]

[2] = Drug release into fresh PBS solution after packaging storage; assay type: physicochemical; details: 0.1 mm thick GEL1 loaded from 4.8 mg/ml ethanol solution, 2 ml fresh PBS
Procedure: as §1

For `CC(=O)OCC(=O)[C@@]1(O)[C@H](C)C[C@H]2[C@@H]3CCC4=CC(=O)C=C[C@]4(C)[C@@]3(F)[C@@H](O)C[C@@]21C` [DXA, dexamethasone acetate], the “drug lost to the packaging solution” value ([1]; 0.1 mm thick GEL1, 1.75 cm diameter, loaded from drug-ethanol solution, stored in 1 ml PBS for 2 months) was “about 8 μg”, the “drug extracted in packaging solution” value ([1]; 0.1 mm thick GEL1, loaded from 4.8 mg/ml drug-ethanol solution, stored in 1 ml PBS for 1.5 months) was “about 8 μg” and the “release rate to fresh PBS solution” value ([2]; after packaging 1.5 or 2 months) was 0.3 µg/day. For the same compound, the “duration of release to fresh PBS solution” value ([2]; after packaging) was greater than 90 days.
